Assay results reported in patent publication US20220267258A1, “ROBENIDINE ANALOGS AS POTENT ANTIMALARIALS AGAINST DRUG-RESISTANT PLASMODIUM FALCIPARUM” (OREGON HEALTH & SCIENCE UNIVERSITY, priority 2021, published 2022).

system: P. falciparum strains; assay: not given; type: cell-based, Plasmodium falciparum; details: MDR strains Dd2 and C2B relative to drug sensitive D6
Protocol: The in vitro activity of each compound in the aminoguanidine library was assessed against asynchronous cultures of Plasmodium falciparum parasites replicating within human erythrocytes (Tables 1-3). As the chemical development of robenidine was not discussed in its original publication in 1970^4 and limited structural information is available regarding its mechanism of action,^10 profiling was guided primarily by in vitro potency against the P. falciparum D6 strain cultured in human erythrocytes as described above.
All aminoguanidines synthesized were also evaluated against three multi-drug resistant P. falciparum strains (Dd2, Tm90-C2B, and A6) and for mammalian cell cytotoxicity.
In addition to the drug-sensitive P. falciparum D6 strain, the aminoguanidines were assessed against three drug-resistant strains (Tables 1-3).
The aminoguanidine series was assessed for in vitro antiplasmodial activity using the fluorescence-based SYBR Green assay described previously by Smilkstein and co-workers.^38 Compounds were evaluated in quadruplicate in flat-bottomed Costar clear 96-well plates (Model #3585). […] Fluorescence was read at 497 nm excitation and 520 nm emission bands using a Spectramax iD3 plate reader. Fluorescence readings were normalized with respect to the untreated control wells representing normal parasite growth and plotted against the logarithm of drug concentration.

| SMILES | degree of cross resistance [fold] |
| --- | --- |
| N=C(N/N=C/c1cccc(F)c1)N/N=C/c1cccc(F)c1 [Compound 3] | 6.5 |
| COc1ccc(/C=N/NC(=N)N/N=C/c2ccc(OC)cc2)cc1 [Compound 11] | ~19 |

system: human hepatoma derived HepG2 cells; assay: HepG2 cytotoxicity assay (resazurin); type: cell-based; details: cytotoxicity/D6 IC50
Protocol: In this assay, HepG2 cells were incubated with test compounds for 24 hours, followed by a 24-hour recovery period and subsequent staining to evaluate for cytotoxic effects with resazurin. The ratio of the resulting HepG2 IC50 value to the P. falciparum D6 IC50 value can be considered an ‘in vitro therapeutic index,’ or IVTI.
Compounds were prepared as 10 mM stock solutions in DMSO. […] HepG2 cells were added to each well of flat bottom 96-well tissue culture plates at an initial density of 2×10^4 cells per well, and an initial volume of 160 μL complete medium per well. After an overnight incubation at 37° C. to adhere the cells to the culture plates, 40 μL drug solutions in complete medium were applied to each well at a final concentration range of 0 to 200 μM across each plate. Drugs were tested in triplicate or quadruplicate. The cells were incubated for 24 hours at 37° C. and 5% CO2 with the drug solutions, which were then aspirated and replaced with 200 μL per well of complete medium for an additional 24 hour incubation under the same conditions. To each well was added 20 μL of resazurin (Alamar Blue) in PBS buffer to a final concentration of 10 μM, and the plates were incubated for 3 hours. Fluorescence was measured at 560 nm excitation and 590 nm emission bands using a Spectramax iD3 plate reader. Fluorescence readings were normalized with respect to the untreated control wells and plotted against the logarithm of drug concentration.

| SMILES | IVTI (In Vitro Therapeutic Index) |
| --- | --- |
| N=C(N/N=C/c1ccccc1F)N/N=C/c1ccccc1F [Compound 2] | >100 |
| N=C(N/N=C/c1cccc(F)c1)N/N=C/c1cccc(F)c1 [Compound 3] | 64 |
| N=C(N/N=C/c1ccc(F)cc1)N/N=C/c1ccc(F)cc1 [Compound 4] | 24 |
| N=C(N/N=C/c1ccccc1Cl)N/N=C/c1ccccc1Cl [Compound 5] | >100 |
| N=C(N/N=C/c1cccc(Cl)c1)N/N=C/c1cccc(Cl)c1 [Compound 6] | >100 |
| N=C(N/N=C/c1ccccc1Br)N/N=C/c1ccccc1Br [Compound 7] | >100 |
| N=C(N/N=C/c1cccc(Br)c1)N/N=C/c1cccc(Br)c1 [Compound 8] | >100 |
| N=C(N/N=C/c1ccc(Br)cc1)N/N=C/c1ccc(Br)cc1 [Compound 9] | >100 |
| Cc1ccc(/C=N/NC(=N)N/N=C/c2ccc(C)cc2)cc1 [Compound 10] | 48 |
| COc1ccc(/C=N/NC(=N)N/N=C/c2ccc(OC)cc2)cc1 [Compound 11] | >100 |
| N=C(N/N=C/c1ccc(C(F)(F)F)cc1)N/N=C/c1ccc(C(F)(F)F)cc1 [Compound 12] | 65 |
| N=C(N/N=C/c1ccccc1OC(F)(F)F)N/N=C/c1ccccc1OC(F)(F)F [Compound 14] | >100 |
| N=C(N/N=C/c1cccc(OC(F)(F)F)c1)N/N=C/c1cccc(OC(F)(F)F)c1 [Compound 15] | 91 |
| N=C(N/N=C/c1ccc(OC(F)(F)F)cc1)N/N=C/c1ccc(OC(F)(F)F)cc1 [Compound 16] | >100 |
| N=C(N/N=C/c1ccc(OC(F)F)cc1)N/N=C/c1ccc(OC(F)F)cc1 [Compound 18] | >100 |
| N#Cc1ccccc1/C=N/NC(=N)N/N=C/c1ccccc1C#N [Compound 20] | 30 |
| N#Cc1cccc(/C=N/NC(=N)N/N=C/c2cccc(C#N)c2)c1 [Compound 21] | >100 |
| N=C(N/N=C/c1ccccc1)N/N=C/c1ccccc1 [Compound 24] | >100 |
| N=C(N/N=C/c1ccc(O)cc1)N/N=C/c1ccc(O)cc1 [Compound 25] | >100 |
| N=C(N/N=C/c1ccc(-c2ccccc2)cc1)N/N=C/c1ccc(-c2ccccc2)cc1 [Compound 26] | >100 |
| N=C(NN=Cc1ccc([N+](=O)[O-])cc1)NN=Cc1ccc([N+](=O)[O-])cc1 [Compound 27] | >100 |
| CN(C)c1ccc(/C=N/NC(=N)N/N=C/c2ccc(N(C)C)cc2)cc1 [Compound 28] | >100 |
| CC#COc1ccc(/C=N/NC(=N)N/N=C/c2ccc(OC#CC)cc2)cc1 [Compound 32] | >100 |
| N=C(N/N=C/c1ccc(N2CCOCC2)cc1)N/N=C/c1ccc(N2CCOCC2)cc1 [Compound 33] | >100 |
| N=C(N/N=C/c1cccc(-n2cnnn2)c1)N/N=C/c1cccc(-n2cnnn2)c1 [Compound 34] | 65 |
| Cl.N=C(NN=Cc1ccc2c(c1)OC(F)(F)O2)NN=Cc1ccc2c(c1)OC(F)(F)O2 [Compound 36] | >100 |
| N=C(N/N=C/c1ccccc1)N/N=C/c1ccccc1F [Compound 38] | >100 |
| N=C(N/N=C/c1ccc(Cl)cc1)N/N=C/c1ccc(Cl)cc1 [Robenidine] | 93 |
